One purity is given for all peptides; the source may state it once.

The nature of this data set: general procedure: Boc solid-phase peptide synthesis; Merrifield resin; p-methylbenzhydrylamine (pMBHA) resin (~0.5 mequiv/g). The following applies: for final HPLC purity: whole synthesis, analytical HPLC; for oxidative folding yield: oxidative folding step.

As for “2,6-dimethyl-L-tyrosyl-3-mercapto-D-valylglycyl-4-chloro-L-phenylalanyl-3-mercapto-D-valine, cyclic (2→5)-disulfide, phenylmethyl ester, monohydrochloride”, the step yield (late stage modification step, HCl) was 74%.
Regarding “2,6-dimethyl-L-tyrosyl-3-mercapto-D-valylglycyl-4-fluoro-L-phenylalanyl-3-mercapto-D-valine, cyclic (2→5)-disulfide”, the “final HPLC purity” value is given as “greater than 99%”.
With “2,6-dimethyl-L-tyrosyl-3-mercapto-D-valylglycyl-L-phenylalanyl-3-mercapto-D-valine, cyclic (2→5)-disulfide”, the “final HPLC purity” value is on record as “greater than 99%”.
Same read-out and setting: then “2,6-dimethyl-L-tyrosyl-3-mercapto-D-valylglycyl-L-phenylalanyl-3-mercapto-L-valine, cyclic (2→5)-disulfide”, with “greater than 99%”.
Regarding “3-mercapto-D-valylglycyl-4-chlorophenylalanyl-3-mercapto-D-valine, cyclic (2→5)-disulfide, phenylmethyl ester, monohydrochloride”, the step yield (late stage modification step) stood at 99%.
“3-mercapto-D-valylglycyl-L-phenylalanyl-3-mercapto-D-valine, cyclic (2→5)-disulfide, methyl ester, monohydrochloride”: where the note is “late stage modification step”, the step yield was found to be 86%.
The same measure, in the same setting: with “-dimethyl-L-tyrosyl-3-mercapto-D-valylglycyl-L-phenylalanyl-3-mercapto-D-valine, cyclic (2→5)-disulfide, methyl ester” the figure was 100%.
For “N-[(1,1-dimethylethoxy)carbonyl]-2,6-dimethyl-L-tyrosyl-3-mercapto-D-valylglycyl-4-chloro-L-phenylalanyl-3-mercapto-D-valine, cyclic (2→5)-disulfide, phenylmethyl ester”, the step yield (coupling step) is recorded as 48%.
Turning to “N-[(1,1-dimethylethoxy)carbonyl]-2,6-dimethyl-L-tyrosyl-3-mercapto-D-valylglycyl-L-phenylalanyl-3-mercapto-D -valine, cyclic (2→5)-disulfide, methyl ester”, under “coupling step”, the step yield came to 42%.
As for “N-[(1,1-dimethylethoxy)carbonyl]-3-mercapto-D-valylglycyl-4-chlorophenylalanyl-3-mercapto-D-valine, cyclic (2→5)-disulfide, phenylmethyl ester”, the oxidative folding yield was found to be 36%.
The same measure, in the same setting: with “N-[(1,1-dimethylethoxy)carbonyl]-3-mercapto-D-valylglycyl-L-phenylalanyl-3- mercapto-D-valine, cyclic (2→5)-disulfide methyl ester” the figure was 54%.

The values are drawn from patent publication US5169833A (G. D. Searle & Co., priority 1991, dated 1992).
